Laboratory results taken from publication PMC12445080.
The exact form of at least one protein or probe is not confirmed. Negatives hold for the conditions tested. Tags and fusion partners may be left off the protein sequences shown.

Target: T1, NolR-His (UniProt P28267)
T1 sequence (looked up, limits assumed): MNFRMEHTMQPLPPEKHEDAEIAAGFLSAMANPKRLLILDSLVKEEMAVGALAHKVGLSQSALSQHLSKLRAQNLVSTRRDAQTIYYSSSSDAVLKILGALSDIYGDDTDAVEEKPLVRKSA
Assay: EMSA
Conditions: 5 mM Mg2+, 200 ug/mL salmon sperm DNA, 10 mM Tris-HCl pH 8.0, 1 mM EDTA, 50 mM KCl, 5 mM MgCl2, 1 mM DTT, 5% glycerol, 10 ug/mL BSA, 200 ug/mL sonicated salmon sperm DNA, 2-4 nM probe, recombinant protein, protein details: C-terminal 6xHis (GGGHHHHHH)

## GCAATGCTGCAATAATGTCGCCGCTCTTCATCTGATACGACAATACACACGCATGTGTATTCGTCCAATGAATTTGTCAAGCCAATCTAAGGCGGCTTTCTCGGATGGTCTCGAACCGTCGGATCATCAGCTTGTGCTAAAAAAGCCAATATTCATCTCTAACGACCGCCTGGCTGGGACTTCGAAGCGAGTTCGGACGGAGAGTTCATG (double strand) [lpsS upstream (210 bp)]
High protein:probe ratio required, second shift at higher ratios
  binding result: binds

## GGGAACGAGTAACCGACATTGGCCGCCATCGATGCGGTGCTTGCCCGATGGGAGGCGGCGATTGAGGACGCAAAGGCGCCGGGCCGCACGCGAGAAGGATCCGCGATAGTGCCGTGGCGGTCTGGATCGCATCGAGGAGTCGAGGTACTCCAGCGTCCCGCCAGAATACCAATTGGTTTGCGCGTGGTCAGTTTTCGCTGGAACTATACTTTACGCCACCACTTGAAAACGAGCGTCGACTCCCATACCCATCCCTTAGATTGTAGTCGGGGGATACATAGTG (double strand) [hna upstream (283 bp)]
Protein amount equivalent to nodD1 probe
  binding result: no binding

## TCAAAGCACGATCGAGAGTGGTGTGTACCCGGCAAGTTACACCGGGGACGCCAACCGTAGCGCTGGACCGTTGGTCGAGCGCTTAGATGACGGCTCTAAATTCGGACCCATCCTGTACTTGTGAAACTTTTCTCGCGCCGCACCTTGATTCCATTAACTTCAGGGTTCTCTAATAGGACTCTGCAAGATTGGTAAAATTGATTGTTTGGATAACGATCATCTGCGATATGGATGCCGCACA (double strand) [nodD1 upstream (241 bp)]
High protein:probe ratio required
  binding result: binds
